Test results published in paper PMC9398197.

Assays:
[1] = target: T1, MdHHO3-GST (Malus domestica) (UniProt A0A498I6H4); test: competition with a labelled probe; settings: 50x, 100x, 200x versus labeled P2; EMSA in binding buffer (composition not given), room temperature, dark, 30 min; recombinant protein; protein details: GST (pGEX-4T-1)
T1 sequence (looked up, limits assumed): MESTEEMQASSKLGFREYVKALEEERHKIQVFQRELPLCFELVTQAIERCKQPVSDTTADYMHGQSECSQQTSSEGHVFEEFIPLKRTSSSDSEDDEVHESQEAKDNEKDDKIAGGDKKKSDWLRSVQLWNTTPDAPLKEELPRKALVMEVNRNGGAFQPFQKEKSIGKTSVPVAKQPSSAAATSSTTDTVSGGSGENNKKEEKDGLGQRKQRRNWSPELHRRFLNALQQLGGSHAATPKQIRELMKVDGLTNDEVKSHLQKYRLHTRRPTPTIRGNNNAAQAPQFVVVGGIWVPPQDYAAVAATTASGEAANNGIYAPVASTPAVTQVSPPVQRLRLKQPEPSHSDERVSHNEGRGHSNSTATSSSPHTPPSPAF

[2] = target: T1, MdHHO3-GST (Malus domestica); test: EMSA; settings: EMSA in binding buffer (composition not given), room temperature, dark, 30 min; recombinant protein; protein details: GST (pGEX-4T-1); label: biotin

Sequence	binding result [1]	binding result [2]
AACTCTTAACGAATCAATGGATGGA (double strand) [MdNRT2.1 promoter P2 unlabeled competitor]	binds	
AACTCTTAACGAATCAATGGATGGA (double strand) [MdNRT2.1 promoter P2]		binds
ATTTCATTAAGATTCTTAGGGAGCG (double strand) [MdHHO3 promoter P1]		binds

For at least one entry, the source does not settle the construct or the ends of the probe. Protein sequences can lack the tags named with them.
